Results: the supplement of paper PMC12009310
Where a name gives a salt, the structure may show the parent alone. ± gives the standard deviation of the averaged measurements. The list shows a part of the results. Part of the spread comes from offsets between plates or batches.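 The cells are a mouse kidney inner medullary collecting duct line, silenced either for the ciliary gene Rpgrip1l or with a non-targeting control siRNA.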

What was measured:
[1] = test system: mIMCD3; experiment: robust z score of cell number vs plate controls; higher = more cells (less cytotoxic); conditions: 10 µM, 48 h
[2] = test system: mIMCD3; experiment: robust z score of cilia incidence (% cells with single cilium) vs plate controls; higher = more ciliated cells; conditions: 10 µM; 48 h; siRNA: siScr
[3] = test system: mIMCD3; experiment: robust z score of cilia incidence (% cells with single cilium) vs plate controls; higher = more ciliated cells (rescue of cilia loss); conditions: 10 µM; 48 h; siRNA: siRpgrip1l

Compound | robust z score of cell number ([1]; siRNA: siRpgrip1l) | robust z score of cell number ([1]; siRNA: siScr) | robust z score of cilia incidence [2] | robust z score of cilia incidence [3]
CNC(=O)[C@@H](Cc1ccccc1)N(C)C(=O)[C@@H](Cc1ccc2ccccc2c1)N(C)C(=O)/C=C/CC(C)(C)N [Tabimorelin] | -7.97 ± 2.8 | -2.91 ± 1.4 | -0.477 ± 3.4 | -13.6 ± 12
CCCCc1nc2ccn(Cc3cccs3)c(=O)c2n1Cc1ccc(-c2ccccc2-c2nn[nH]n2)cc1 | -0.467 ± 0.38 | -0.505 ± 2.3 | -6.94 ± 2.1 | -35.8 ± 32
C1CCC(N=C(NC23CC4CC(CC(C4)C2)C3)N2CCOCC2)CC1 | -11.6 ± 3.4 | -22.2 ± 16 | -17.4 ± 1.8 | -44.5 ± 19
CC1=NN(c2ccccc2)C(=O)C1 | -2.55 ± 0.31 | 1.66 ± 1.1 | 1.8 ± 1.5 | -4.76 ± 1.9
O=C(c1ccc(Nc2nccc(-c3cc4ccccc4s3)n2)cc1)N1CCC(N2CCCC2)CC1 | -32.7 ± 10 | -144 ± 110 | -66.7 ± 16 | -57.3 ± 7.8
OC1CCC(Nc2nc(-c3ccccc3)nc3[nH]ccc23)CC1 (stereo unspecified) | -5.34 ± 3.2 | -4.2 ± 1.7 | -7.2 ± 5.8 | -5.83 ± 0.87
N=C(N)S/C=C\C(=O)O [ZAPA sulphate] | -12.3 ± 17 | -3.33 ± 8.8 | 1.12 ± 1.3 | -11.6 ± 9.9
NCCNC(=O)c1ccc(Cl)cn1 [Lazabemide hydrochloride] | 0.768 ± 0.37 | -1.57 ± 1.6 | 1.36 ± 1.6 | -8.41 ± 6.3
O=C(Nc1ccccc1)C12CC1C(=NO)c1ccccc1O2 (stereo unspecified) | -13.7 ± 11 | -1.26 ± 6.3 | -3.28 ± 0.57 | -23.5 ± 1.5
COc1ccc(C(=O)Nc2sc3c(c2C(N)=O)CCCC3)cc1OC | -8.67 ± 7.2 | -47.1 ± 50 | -3.78 ± 3 | -13.5 ± 4.9
CCCCCCCC/C=C\CCCCCCCC(N)=O [Oleamide] | -3.51 ± 1.6 | -0.832 ± 0.83 | -3.19 ± 5.8 | -9.59 ± 3.3
CCOC(=O)[C@@H](C)Oc1cccc2c(=O)n(CC(=O)Nc3ccc4c(c3)OCCO4)ccc12 | -4.73 ± 1.6 | -5.13 ± 0.29 | -7.9 ± 6.8 | -6.27 ± 0.19
COc1ccc2c(c1)c(CC(=O)N1CCOCC1)c(C)n2C(=O)c1ccc(Cl)cc1 | -18.5 ± 24 | -4.43 ± 2.4 | -0.596 ± 1.5 | -8.17 ± 2
COc1cc(Br)c(S(=O)(=O)Nc2ccc(Cl)c(O[C@@H]3CCN(C)C3)c2)cc1OC | -17.4 ± 17 | -8.7 ± 5 | -14.5 ± 2.6 | -14.8 ± 4.3
COc1cccc2c1C(=O)c1c(O)c3c(c(O)c1C2=O)C[C@@](O)(C(C)=O)C[C@@H]3O[C@H]1C[C@H](N)[C@H](O)[C@H](C)O1 [Daunorubicin hydrochloride] | -62 ± 53 | -51.4 ± 1.4 | -75.3 ± 18 | -44.95 ± 0.15
CN(C)CCCN1c2ccccc2CCc2ccc(Cl)cc21 [Clomipramine hydrochloride] | -15 ± 14 | -16.7 ± 12 | -0.808 ± 0.8 | -4.28 ± 5.3
c1ccc(C(NCCNC(c2ccccc2)c2ccccc2)c2ccccc2)cc1 [AMN 082 dihydrochloride] | -29.8 ± 15 | -27.1 ± 4.9 | -27.8 ± 13 | -26.1 ± 10
CCCCCCNC(=O)Nc1ccc(S(=O)(=O)Nc2ccc(CCNC[C@H](O)COc3ccc(O)cc3)cc2)cc1 | -30.8 ± 19 | -35.5 ± 27 | -4.91 ± 5.9 | -34.7 ± 14
CC1(C)CC(=O)C(C2C3=C(CC(C)(C)CC3=O)Oc3ccccc32)C(=O)C1 (stereo unspecified) | -28.8 ± 44 | -0.747 ± 0.11 | -0.00441 ± 2.5 | -7.12 ± 0.75
O=C(Nc1ccccc1)N[C@@H]1C[C@@H](C(=O)O)Nc2cc(Cl)cc(Cl)c21 | -1.78 ± 1.6 | -1.97 ± 1.2 | 0.753 ± 0.77 | -3.73 ± 2.1
CC(C)(Sc1ccc(CCN(CCCCC2CCCCC2)C(=O)NC2CCCCC2)cc1)C(=O)O | -44.7 ± 41 | -44.4 ± 30 | -120 ± 66 | -119 ± 110
CCOC(=O)C1=C(C)NC(C)=C(C(=O)OC)C1c1cccc([N+](=O)[O-])c1 (stereo unspecified) [Nitrendipine] | -23 ± 14 | -37.2 ± 43 | 0.81 ± 2.1 | -9.85 ± 8.2
CN(C)CCC1(c2ccc(Cl)cc2)Cc2ccccc2C(=O)O1 (racemic) [(±)-AC 7954 hydrochloride] | -7.28 ± 3.2 | -50.3 ± 59 | -17.6 ± 10 | -18.9 ± 3
CN/C(=N\CCSCc1nc[nH]c1C)NC#N [Cimetidine] | -19.2 ± 23 | -0.956 ± 5.2 | 0.111 ± 1 | -5.37 ± 1.7
O=C(/C=C/c1ccccc1)NC(NC(=S)Nc1cccc2cccnc12)C(Cl)(Cl)Cl (stereo unspecified) [Salubrinal] | -20.8 ± 11 | -17.8 ± 4.2 | -5.14 ± 3.8 | -13.2 ± 7.8
CNCC[C@@H](Oc1ccccc1C)c1ccccc1 [Tomoxetine hydrochloride] | -5.58 ± 4.9 | -1.25 ± 2.2 | 1.7 ± 0.99 | -21.7 ± 20
Oc1nc(-c2ccc(C(F)(F)F)cc2)nc2c1CSCC2 | -14.3 ± 9.6 | -13.6 ± 4.2 | -1.3 ± 4.8 | -10.8 ± 5
CCN(Cc1ccncc1)C(=O)C(CO)c1ccccc1 (stereo unspecified) [Tropicamide] | -3.41 ± 1.5 | -1.31 ± 1.7 | -2.08 ± 2.6 | -8.85 ± 3.3
N#Cc1cc2nc(O)c(O)nc2cc1[N+](=O)[O-] [CNQX disodium salt] | -8.82 ± 9.6 | -2.69 ± 6.8 | 0.201 ± 0.23 | -3.96 ± 0.58

One compound at a time, as listed above. Values in the order: robust z score of cell number ([1]; siRNA: siRpgrip1l)	robust z score of cell number ([1]; siRNA: siScr)	robust z score of cilia incidence [2]	robust z score of cilia incidence [3]
CCCCc1nc2ccn(Cc3cccs3)c(=O)c2n1Cc1ccc(-c2ccccc2-c2nn[nH]n2)cc1 is listed with -0.467 ± 0.38	-0.505 ± 2.3	-6.94 ± 2.1	-35.8 ± 32
C1CCC(N=C(NC23CC4CC(CC(C4)C2)C3)N2CCOCC2)CC1 is listed with -11.6 ± 3.4	-22.2 ± 16	-17.4 ± 1.8	-44.5 ± 19
